Values quoted from earlier work, collected in patent US20080279957A1, “Immunomodulating compositions from bile” (Lorus Therapeutics Inc., priority 2000, published 2008).
At least one compound was matched to its structure with a doubt left.

Test system: advanced malignant melanoma
Conditions: standard treatment of advanced malignant melanoma; cited from earlier work

CN(C)/N=N/c1[nH]cnc1C(N)=O [DTIC, dacarbazine]
median response: 3-6 months
reported response rate: about 15%
